In PubChem BioAssay AID493244 (The Scripps Research Institute Molecular Screening Center, 2011):
The list shows a part of the results, in another mix than the full data. Activity calls are given as the source filed them.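 The calls were made as follows: active = inhibition above the mean inhibition of all tested compounds plus 3 SD (cut at about 17% in these data); inactive = the rest.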

Target: Troponin I, cardiac muscle (Homo sapiens) + Troponin T, cardiac muscle (Homo sapiens) + Troponin C, slow skeletal and cardiac muscles (Homo sapiens) (UniProt P19429+P45379+P63316)
Assay: calcium desensitizers of cardiac thin filaments – biochemical, IANBD-TnC fluorescence, EC70 calcium, primary screen (AID 493244);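 also: assay run at fixed EC70 calcium of 1.6 mM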
Details: IANBD-labeled cardiac RTF, Ca2+ fluorescence; at 7.15 µM; hits give high values

Question: Which inhibition does the source give for CN1[C@@H]2CC[C@H]1CC(OC(=O)C(O)c1ccccc1)C2 (stereo partly specified) here?
Answer: active: 17%
